Measurements reported in paper PMC2782133.
No constants are given. Whether binding was seen depends on the method and setting. For some assays here: In cells and extracts the contact can be indirect. Some entries that bind do so weakly or less than the wild type.

Chains of the proteins cited; added tags and fusions are not shown.
UniProt P45973: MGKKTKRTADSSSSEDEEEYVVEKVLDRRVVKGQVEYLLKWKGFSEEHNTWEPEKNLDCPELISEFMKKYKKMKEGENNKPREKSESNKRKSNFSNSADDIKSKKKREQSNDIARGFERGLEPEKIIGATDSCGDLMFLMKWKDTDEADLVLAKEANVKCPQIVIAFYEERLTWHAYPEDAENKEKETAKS
UniProt P51531: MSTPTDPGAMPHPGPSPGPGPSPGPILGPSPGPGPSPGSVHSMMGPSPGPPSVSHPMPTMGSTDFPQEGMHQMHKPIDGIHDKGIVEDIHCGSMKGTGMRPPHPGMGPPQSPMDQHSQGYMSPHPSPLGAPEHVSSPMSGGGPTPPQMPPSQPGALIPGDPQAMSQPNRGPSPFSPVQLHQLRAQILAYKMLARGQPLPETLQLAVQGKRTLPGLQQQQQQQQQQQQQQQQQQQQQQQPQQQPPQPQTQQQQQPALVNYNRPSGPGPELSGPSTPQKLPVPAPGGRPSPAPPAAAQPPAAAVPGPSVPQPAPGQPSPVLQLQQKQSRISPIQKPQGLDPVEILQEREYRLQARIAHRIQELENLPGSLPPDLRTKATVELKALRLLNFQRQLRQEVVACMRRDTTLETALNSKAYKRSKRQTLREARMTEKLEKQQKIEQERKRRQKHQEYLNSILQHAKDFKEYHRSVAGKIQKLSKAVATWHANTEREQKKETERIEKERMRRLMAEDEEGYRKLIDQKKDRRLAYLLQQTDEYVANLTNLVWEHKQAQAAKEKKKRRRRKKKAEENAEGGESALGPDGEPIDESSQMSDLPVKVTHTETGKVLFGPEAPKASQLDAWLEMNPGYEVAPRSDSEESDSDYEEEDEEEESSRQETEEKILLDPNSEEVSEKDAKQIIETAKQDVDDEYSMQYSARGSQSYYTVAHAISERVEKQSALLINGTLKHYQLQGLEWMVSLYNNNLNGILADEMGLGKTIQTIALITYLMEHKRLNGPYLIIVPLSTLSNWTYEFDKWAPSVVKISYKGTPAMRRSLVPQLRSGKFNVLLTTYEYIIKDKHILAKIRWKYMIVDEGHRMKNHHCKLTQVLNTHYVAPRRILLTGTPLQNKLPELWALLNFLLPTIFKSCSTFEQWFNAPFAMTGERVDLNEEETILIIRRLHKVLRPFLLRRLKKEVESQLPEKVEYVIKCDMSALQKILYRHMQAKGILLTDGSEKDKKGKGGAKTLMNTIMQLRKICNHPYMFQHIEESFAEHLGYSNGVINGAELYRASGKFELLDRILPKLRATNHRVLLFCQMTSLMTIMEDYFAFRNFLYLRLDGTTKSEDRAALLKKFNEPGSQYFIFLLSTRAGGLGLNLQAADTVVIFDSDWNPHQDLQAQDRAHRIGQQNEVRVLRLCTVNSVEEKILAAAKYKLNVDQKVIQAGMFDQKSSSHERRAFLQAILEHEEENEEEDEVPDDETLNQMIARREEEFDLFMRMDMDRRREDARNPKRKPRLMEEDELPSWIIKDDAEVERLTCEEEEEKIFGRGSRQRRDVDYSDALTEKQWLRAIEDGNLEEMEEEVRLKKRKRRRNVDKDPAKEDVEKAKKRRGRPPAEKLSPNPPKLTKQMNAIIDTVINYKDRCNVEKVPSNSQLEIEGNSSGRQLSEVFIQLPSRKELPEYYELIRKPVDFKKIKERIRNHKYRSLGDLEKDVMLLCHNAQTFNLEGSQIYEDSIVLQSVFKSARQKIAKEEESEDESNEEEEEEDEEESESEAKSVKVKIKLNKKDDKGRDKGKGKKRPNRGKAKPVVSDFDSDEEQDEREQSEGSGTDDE
UniProt P51532: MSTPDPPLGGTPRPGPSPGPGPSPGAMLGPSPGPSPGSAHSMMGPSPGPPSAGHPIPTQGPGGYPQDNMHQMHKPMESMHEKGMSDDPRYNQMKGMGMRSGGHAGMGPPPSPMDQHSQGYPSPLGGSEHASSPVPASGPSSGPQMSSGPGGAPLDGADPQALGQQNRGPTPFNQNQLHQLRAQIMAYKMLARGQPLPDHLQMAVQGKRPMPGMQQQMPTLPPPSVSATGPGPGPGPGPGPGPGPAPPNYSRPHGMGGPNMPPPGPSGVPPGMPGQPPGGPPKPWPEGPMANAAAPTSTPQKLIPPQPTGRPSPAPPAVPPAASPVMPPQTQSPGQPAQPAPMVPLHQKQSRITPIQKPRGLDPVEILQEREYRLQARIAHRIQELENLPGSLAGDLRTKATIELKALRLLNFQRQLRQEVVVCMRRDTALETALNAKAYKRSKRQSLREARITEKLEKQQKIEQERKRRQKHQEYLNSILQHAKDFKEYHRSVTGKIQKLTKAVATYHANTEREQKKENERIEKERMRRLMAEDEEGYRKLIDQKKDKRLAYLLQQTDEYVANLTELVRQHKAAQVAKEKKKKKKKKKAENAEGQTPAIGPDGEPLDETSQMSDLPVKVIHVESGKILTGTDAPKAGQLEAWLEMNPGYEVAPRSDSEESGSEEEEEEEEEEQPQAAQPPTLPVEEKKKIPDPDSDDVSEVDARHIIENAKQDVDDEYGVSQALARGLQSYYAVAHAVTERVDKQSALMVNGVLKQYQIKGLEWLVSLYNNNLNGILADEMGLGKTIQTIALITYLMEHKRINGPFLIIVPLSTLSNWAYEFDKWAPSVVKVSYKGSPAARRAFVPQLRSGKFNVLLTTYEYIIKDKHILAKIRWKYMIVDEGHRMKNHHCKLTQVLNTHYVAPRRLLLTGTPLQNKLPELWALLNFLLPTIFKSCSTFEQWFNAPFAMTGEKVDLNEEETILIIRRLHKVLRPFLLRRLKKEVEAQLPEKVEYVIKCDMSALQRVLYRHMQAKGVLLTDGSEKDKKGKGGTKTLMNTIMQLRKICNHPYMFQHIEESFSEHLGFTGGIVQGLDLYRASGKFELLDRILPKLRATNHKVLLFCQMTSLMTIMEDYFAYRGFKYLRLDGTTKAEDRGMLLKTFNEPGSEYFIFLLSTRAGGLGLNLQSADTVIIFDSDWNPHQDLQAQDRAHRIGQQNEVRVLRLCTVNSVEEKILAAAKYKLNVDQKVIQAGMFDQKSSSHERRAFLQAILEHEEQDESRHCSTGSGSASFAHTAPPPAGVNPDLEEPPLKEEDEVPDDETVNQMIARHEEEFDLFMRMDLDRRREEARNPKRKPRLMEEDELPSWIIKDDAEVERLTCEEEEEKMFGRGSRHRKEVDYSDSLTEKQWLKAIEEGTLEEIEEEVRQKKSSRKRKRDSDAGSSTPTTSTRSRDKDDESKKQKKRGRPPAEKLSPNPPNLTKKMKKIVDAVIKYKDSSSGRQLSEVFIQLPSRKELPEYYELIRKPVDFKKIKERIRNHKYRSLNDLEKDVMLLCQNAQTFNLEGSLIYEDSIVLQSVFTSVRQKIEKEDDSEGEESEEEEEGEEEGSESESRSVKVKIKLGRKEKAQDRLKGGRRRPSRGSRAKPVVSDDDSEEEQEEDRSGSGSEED

Legend:
[1] = target: HP1α (endogenous, HeLa) (human (endogenous in HeLa)) (UniProt P45973); assay: co-IP; from HeLa total extract; pre-immune serum as control
GST-HP1α (human) = GST-HP1α (human) (UniProt P45973); assay: pull-down; GST fusion proteins bound to agarose beads incubated with purified histones, recombinant B10-tagged H3 constructs or purified Brg1-flag; ELB buffer (50mM HEPES pH 7, 250mM NaCl, 1mM EDTA, 0.1% NP40); elution with 20mM glutathione; western blot (anti-H3, anti-B10 or anti-Brg1); both purified

| binding [1] | binding (GST-HP1α (human)) | Substance |
| --- | --- | --- |
| binds | – | Brm (endogenous, HeLa) (from UniProt P51531 1-1590) (enzyme) |
| – | binds | recombinant flag-tagged full length Brg1 (from UniProt P51532 1-1647) (enzyme) |
